This is an account of results in the supplement of paper PMC12542422.

Where a name gives a salt, the structure may show the parent alone. ± gives the standard deviation of the averaged measurements. Some of the results follow. These are raw signals, not scaled to a control.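 Across three biological replicates, HeLa cells were imaged for ribosome assembly using ENP1 staining (export block present or absent) or inducible tagged ribosomal protein reporters. Machine learning classified each cell's signal localization relative to DMSO controls. Hits exceeded the DMSO false-positive mean by five standard deviations and were then visually confirmed.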

The subject of the experiment is HeLa K (ENP1 immunofluorescence, +LMB). Description: fraction of cells with nucleolar or nucleolar/nucleoplasmic ENP1 signal (MainHitrate); higher = more cells with nucleolar/nuclear readout signal (for ENP1 -LMB: less RNAPI inhibition; for +LMB ENP1 and RP reporters: stronger nuclear/nucleolar retention, i.e. ribosome biogenesis defect). Conditions: concentration: 1 µM; treatment time: 6 h; ENP1 +LMB; leptomycin B: 20 nM, last 1.5 h.
As for `CCS(=O)(=O)CCn1c([N+](=O)[O-])cnc1C` [tinidazole], the fraction amounted to 0.0601 ± 0.06. Next, `CCc1c2c(nc3ccc(OC(=O)N4CCC(N5CCCCC5)CC4)cc13)-c1cc3c(c(=O)n1C2)COC(=O)[C@]3(O)CC` [Irinotecan]: 0.111 ± 0.1. Next, `C=C1/C(=C\C=C2/CCC[C@]3(C)[C@@H]([C@H](C)/C=C/[C@H](C)C(C)C)CC[C@@H]23)C[C@@H](O)C[C@@H]1O` [Doxercalciferol (Hectorol)]: 0.0486 ± 0.024.

Turning to `C#C[C@]1(O)CC[C@H]2[C@@H]3CCC4=CC(=O)CC[C@@H]4[C@H]3CC[C@@]21CC` [Levonorgestrel (Levonelle)], the fraction amounted to 0.0918 ± 0.089.

With `CC1(C)[C@@H](O[C@H]2O[C@H](C(=O)O)[C@@H](O)[C@H](O)[C@H]2O[C@@H]2O[C@H](C(=O)O)[C@@H](O)[C@H](O)[C@H]2O)CC[C@]2(C)[C@H]3C(=O)C=C4[C@@H]5C[C@@](C)(C(=O)O)CC[C@]5(C)CC[C@@]4(C)[C@]3(C)CC[C@@H]12` [Ammonium Glycyrrhizinate (AMGZ)], the fraction is 0.146 ± 0.22. Next, `CC(=O)O[C@H]1CC[C@@]2(C)C(=CC[C@@H]3[C@@H]2CC[C@]2(C)C(c4cccnc4)=CC[C@@H]32)C1` [Abiraterone Acetate (CB7630)]: 0.136 ± 0.21. Next, `Cc1onc(-c2ccccc2Cl)c1C(=O)N[C@@H]1C(=O)N2[C@@H]1SC(C)(C)[C@@H]2C(=O)O` [Cloxacillin sodium (Cloxacap)]: 0.0902 ± 0.12. Regarding `CCCCOc1ccc(CC(=O)NO)cc1` [Bufexamac], the fraction was determined as 0.0946 ± 0.13.

Compound `COc1cc2nccc(Oc3ccc(NC(=O)C4(C(=O)Nc5ccc(F)cc5)CC4)cc3)c2cc1OC` [XL-184 (Cabozantinib)] had a fraction of 0.0473 ± 0.024.

Compound `CCCCCCCCCCCCCCCCO` [1-Hexadecanol] displayed a fraction of 0.0704 ± 0.074. To `Nc1nc(=O)[nH]cc1F` [Flucytosine (Ancobon)] belongs 0.0811 ± 0.038. To `N=C(N)NC(=O)c1nc(Cl)c(N)nc1N` [Amiloride hydrochloride dihydrate] belongs 0.117 ± 0.18; to `NC(CO)C(=O)NNCc1ccc(O)c(O)c1O` (stereo not drawn) [Benserazide], 0.16 ± 0.24; to `CCC(=O)NCC[C@@H]1CCc2ccc3c(c21)CCO3` [Ramelteon (TAK-375)], 0.104 ± 0.11. Take `COc1cccc2c1C(=O)c1c(O)c3c(c(O)c1C2=O)C[C@@](O)(C(=O)CO)C[C@@H]3O[C@H]1C[C@H](N)[C@@H](O)[C@H](C)O1` [Epirubicin Hydrochloride]: the fraction amounted to 0.0849 ± 0.13. In turn, `CN(C)[C@@H]1C(O)=C(C(N)=O)C(=O)[C@@]2(O)C(O)=C3C(=O)c4c(O)cccc4[C@@](C)(O)[C@H]3[C@H](O)[C@@H]12` [Oxytetracycline dihydrate] had a fraction of 0.0778 ± 0.097. Next, `C#CCN[C@@H]1CCc2ccccc21` [Rasagiline mesylate]: 0.108 ± 0.15. To `CN1CCC(=C2c3ccccc3CCc3sccc32)CC1` [Pizotifen malate] belongs 0.127 ± 0.11. In turn, `Cc1cc2c(s1)Nc1ccccc1N=C2N1CCN(C)CC1` [Olanzapine (Zyprexa)] gave a fraction of 0.136 ± 0.19. `NC(=O)c1ncn([C@@H]2O[C@H](CO)[C@@H](O)[C@H]2O)c1N` [Acadesine] gave a fraction of 0.0418 ± 0.041. To `COC(=O)/C=C/C(=O)OC` [Dimethyl Fumarate] belongs 0.0461 ± 0.044; to `COc1ccc2cc1Oc1ccc(cc1)C[C@H]1c3c(cc4c(c3Oc3cc5c(cc3OC)CCN(C)[C@@H]5C2)OCO4)CCN1C` [Cepharanthine], 0.0867 ± 0.13. To `Cc1ccc(Nc2nccc(N(C)c3ccc4c(C)n(C)nc4c3)n2)cc1S(N)(=O)=O` [Pazopanib] belongs 0.168 ± 0.26. Next, `Cc1nnc(C(C)C)n1C1C[C@H]2CC[C@@H](C1)N2CC[C@H](NC(=O)C1CCC(F)(F)CC1)c1ccccc1` (stereo in doubt) [Maraviroc]: 0.0813 ± 0.088. For the compound `O=C([O-])C(O)[C@H](O)[C@@H](O)[C@H](O)[C@H](O)CO.O=C([O-])C(O)[C@H](O)[C@@H](O)[C@H](O)[C@H](O)CO.[Ca+2]` (stereo partly drawn) [Calcium Gluceptate], the fraction was 0.0627 ± 0.066.

With `CC(C)OC(=O)C(C(=O)OC(C)C)=C1SC=CS1` [Malotilate], the fraction is 0.0766 ± 0.068. To `CN(Cc1cnc2nc(N)nc(N)c2n1)c1ccc(C(=O)N[C@@H](CCC(=O)O)C(=O)O)cc1` [Abitrexate (Methotrexate)] belongs 0.18 ± 0.25. Next, `CC(=O)OCC(=O)[C@@]1(O)[C@H](C)C[C@H]2[C@@H]3CCC4=CC(=O)C=C[C@]4(C)[C@@]3(F)[C@@H](O)C[C@@]21C` [Dexamethasone acetate]: 0.0606 ± 0.072.
